Laboratory results published in patent US8871735B2, “Methods and compositions for providing cardiac protection” (University of Medicine and Dentistry of New Jersey, priority 2008, dated 2014).
Structures were worked out from names or drawings and are uncertain.

Tested on: H9C2 cells
Assay: cAMP accumulation in H9C2 cells
Type: cell-based
Settings: 5 μM ISO, 3 minutes, 10 μM drug
Protocol: […] Cells were stimulated with 5 μM isoproterenol (ISO), a β-AR agonist, for 3 minutes in the presence or absence of the indicated drugs (10 μM). Ara-Ade (Adenine 9-β-D-arabinofuranoside) is an anti-herpes simplex drug. Fludarabine ((+)-2-Fluoro-9-(5-O-phosphono-β-D-arabinofuranosyl)-9H-purin-6-amine) and Cladribine (2-chloro-2′-deoxyadenosine) are anti-cancer drugs, Adefovir (Bis(2,2-dimethylpropanoyloxymethyl)[2-(6-amino-9H-purin-9-yl)ethoxymethyl]phosphonate) and Zidovudine are anti-HIV drugs. Zidovudine-TP is a metabolite of zidovudine which inhibits virus replication. TP; triphosphate. 3-Deazaadenosine, Formycin A (7-Amino-3-(β-D-ribofuranosyl)-1H-pyrazolo[4,3-d]pyrimidine), 2-Far (2-Fluoroadenosine), formycin A ((2S,3R,4S,5R)-2-(7-amino-2H-pyrazolo[5,4-e]pyramidin-3-yl-5-(hydroxymeth-yl)oxolane-3,4-diol), 2-FD (2-Fluoro-2′-deoxyadenosine) and 2′5′ ddAdo (2′5′-dideoxyadenosine) are experimental drugs.
Mice were anesthetized with 2.5% tribromoethanol (0.010 to 0.015 mL per gram of body weight) injected intraperitoneally, and echocardiography was performed with ultrasonography (ACUSON Sequoia C256, Siemens Medical Solutions, Malvern, Pa.). […]

Nc1ncnc2c1ncn2C1CCC(C(=O)NO)C1 (stereo not shown) [PMC-6]
inhibition of cAMP accumulation in H9C2 cells: inhibited cAMP accumulation
